PubChem BioAssay AID504834 (National Center for Advancing Translational Sciences (NCATS), 2011)
Out of some 320,000 compounds screened, about 22,000 (6.9%) were called active. This list was built around the results that the source calls inconclusive (neither active nor inactive); the mix of calls is not that of the screen. The call rests on the fitted dose curve; in most records, active means well fitted inhibition curve with a large enough effect; inconclusive means small, poorly fitted or top-dose-only effect, or another doubt; inactive means no such curve, though single readings can be large or run the other way. Where the call is inconclusive, the potency comes from a doubtful curve fit.

Assay: Primary qHTS for delayed death inhibitors of the malarial parasite plastid, 96 hour incubation
Conditions: P. falciparum luciferase reporter growth; series mostly up to 28.7 µM; activity change, negative = inhibition: at the top concentration
Summary of the method: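 Two-generation exposure (96 h) targets delayed-death phenotype. Reporter parasites carrying integrated firefly luciferase, in red cells at 2% hematocrit and 0.05% parasitemia final, kept at 37 C, 5% CO2; luminescence loss indicates inhibition.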
On the % scale 0 is the no-effect control and ±100 the full control effect; potency means the concentration at half of the fitted maximal effect.

| SMILES | activity change, negative = inhibition | Potency |
| --- | --- | --- |
| COc1cc(C=C2C(=O)c3ccccc3C2=O)cc(OC)c1OC | inactive: -13% |  |
| COC(=O)c1ccc(N2C(=O)Nc3ccccc3N2O)cc1 | inactive: 10.1% |  |
| CCOC(=O)c1cnc(Nc2ccccc2)nc1C(F)(F)F | inactive: 62.4% |  |
| O=C(Nc1ccccc1-c1ccccc1)c1ccccc1 |  | inconclusive: 13.1 µM [inhibitor, partial curve, poor fit] |
| CCN(CC)CCNC(=O)NC(=O)c1ccc(Cl)cc1 | inactive: 15.8% |  |
| Cc1c(C(=O)N2CCOCC2)c(S(=O)(=O)Nc2ccccc2)c(C)n1C |  | inconclusive: 9.28 µM [inhibitor, partial curve] |
| CC1CC(C)CN(S(=O)(=O)c2cccc3cccnc23)C1 (stereo unspecified) |  | inconclusive: 18.5 µM [inhibitor, single point] |
| COc1ccccc1CCC(=O)OCC(=O)c1c(N)n(CC(C)C)c(=O)n(C)c1=O |  | inconclusive: 11.7 µM [inhibitor, single point] |
| O=C(CSc1nc2ncccc2[nH]1)Nc1ccc2c(c1)OCO2 | inactive: 24.3% |  |
| Cc1ccc2nc(C(=O)N3CCc4c([nH]c5ccccc45)C3c3ccccn3)cn2c1 (stereo unspecified) |  | active: 9.28 µM |
| CCOc1cc(/C=C/C(=O)OCC(=O)NC2CCS(=O)(=O)C2)ccc1OCc1ccccc1 (stereo unspecified) | inactive: -4.86% |  |
| COc1ccc(N2CCN(C(=O)C3CC(O)CN3S(=O)(=O)c3ccc([N+](=O)[O-])cc3)CC2)cc1 (stereo unspecified) | inactive: 11.4% |  |
| CNc1ccc(Br)cc(C(=O)/C=C/c2ccc(OC)cc2)c1=O | inactive: 18.6% |  |
| O=C(O)c1cc(O)ccc1NC(=O)C(c1ccccc1)c1ccccc1 |  | inconclusive: 20.8 µM [inhibitor, partial curve, poor fit] |
| COc1cccc(C(=O)Nc2cccc3c2ccc2cccn23)c1 |  | inconclusive: 0.208 µM [inhibitor, full curve, poor fit] |
| Nc1nc(Nc2ccccc2)nc(C(F)(F)F)n1 |  | active: 7.38 µM |
| CC(C)(C)C1CCc2onc(C(=O)Nc3ccc4c(c3)OCO4)c2C1 (stereo unspecified) |  | inconclusive: 13.1 µM [inhibitor, partial curve, poor fit] |
| CCN(c1cccc(C)c1)S(=O)(=O)c1c(C)[nH]c(C)c1C(=O)N1CCCCC1 | inactive: -17.9% |  |
| CCCCNC(=S)NC1CCCC1 |  | inconclusive: 11.7 µM [inhibitor, single point] |
| Cc1ccc(S(=O)(=O)N2CCN(C(=O)CN3CCOCC3)C2c2ccccc2)cc1 (stereo unspecified) | inactive: -8.19% |  |
| COC(=O)CN(c1ccc(OC)cc1)S(=O)(=O)c1ccc(OC)c(OC)c1 |  | inconclusive: 2.08 µM [inhibitor, partial curve, poor fit] |
| Cc1cc(/C=C2/C(=O)NC(=O)N(C)C2=O)c(C)n1-c1ccccc1 |  | inconclusive: 18.5 µM [inhibitor, single point] |
| CNc1nc(SC)nc(N2CCOCC2)n1 |  | inconclusive: 11.7 µM [inhibitor, partial curve, poor fit] |

Three neighbouring records from above, for reference:

| SMILES | activity change, negative = inhibition | Potency |
| --- | --- | --- |
| O=C(O)c1cc(O)ccc1NC(=O)C(c1ccccc1)c1ccccc1 |  | inconclusive: 20.8 µM [inhibitor, partial curve, poor fit] |
| COc1cccc(C(=O)Nc2cccc3c2ccc2cccn23)c1 |  | inconclusive: 0.208 µM [inhibitor, full curve, poor fit] |
| Nc1nc(Nc2ccccc2)nc(C(F)(F)F)n1 |  | active: 7.38 µM |

Next part

| SMILES | activity change, negative = inhibition | Potency |
| --- | --- | --- |
| COc1cccc(CNC(=O)CCS(=O)(=O)c2ccccc2Cl)c1 |  | inconclusive: 0.0828 µM [inhibitor, full curve, poor fit] |
| C/C(CC(=O)Nc1ccc(C)c(Cl)c1)=N\NC(=O)c1cccc(O)c1 |  | inconclusive: 18.5 µM [inhibitor, single point] |
| CC(=O)C1=C(c2ccccc2)NC(=O)NC1c1ccc(O)c(Cl)c1 (stereo unspecified) |  | inconclusive: 16.5 µM [inhibitor, single point] |
| CC(C)(C)n1ncc2c(=O)n(CC(=O)N3CCc4ccccc43)cnc21 |  | inconclusive: 0.233 µM [inhibitor, full curve, poor fit] |
| CCCN(CC(=O)Nc1ccccc1C)C(=O)/C=C/c1ccc(OCC)c(OC)c1 |  | inconclusive: 13.1 µM [inhibitor, single point] |
| Cc1occc1C(=O)Nc1c(Cl)cccc1Cl |  | inconclusive: 6.57 µM [inhibitor, partial curve, poor fit] |
| CCO[C@@H]1OC(C(=O)N2CCN(Cc3ccc4c(c3)OCO4)CC2)=C[C@H](c2csc3ccccc23)[C@H]1CCCO |  | active: 2.08 µM |
| COC(=O)c1cc(S(=O)(=O)NCC2CCN(Cc3ccc(Cl)cc3)CC2)cn1C |  | inconclusive: 11.7 µM [inhibitor, single point] |
| CC1CCN(S(=O)(=O)CCNC(=O)c2ccccc2)CC1 | inactive: 10.3% |  |
| CSc1nnc(NC(=O)C2CCCCC2)s1 |  | inconclusive: 18.5 µM [inhibitor, single point] |
| CCC(=O)N/N=C(\C)CC(=O)Nc1ccc2c(c1)OCCO2 | inactive: -17.6% |  |
| COc1ccc(-c2nnc(SCC(=O)Nc3nncs3)o2)cc1 | inactive: 18.5% |  |
| Cn1c2ccccc2c(=O)c2c(=O)n(Cc3ccco3)c(-c3ccc(C(C)(C)C)cc3)nc21 |  | inconclusive: 14.7 µM [inhibitor, partial curve] |
| COc1ccc(-c2nc3ncnn3cc2C)cc1F |  | inconclusive: 14.7 µM [inhibitor, partial curve] |
| CCOC(=O)c1cccc(NC(=O)C2CCCN(c3nnc(N4CCCC4=O)s3)C2)c1 (stereo unspecified) |  | inconclusive: 11.7 µM [inhibitor, partial curve] |
| COc1ccc(CCC(=O)NC(C)C)cc1 | inactive: 131% |  |
| Cc1ccc(NC(=O)Nc2nnc(Cc3ccc([N+](=O)[O-])cc3)s2)cc1 |  | inconclusive: 2.62 µM [inhibitor, full curve, poor fit] |
| COc1ccc2[nH]c(C(=O)N/N=C/c3cc(OC)c(OC)c(OC)c3)cc2c1 |  | active: 5.86 µM |
| O=c1cc(-c2ccc(O)cc2)oc2c(C3OCC(O)C(O)C3O)c(O)c(C3OC(CO)C(O)C(O)C3O)c(O)c12 (stereo unspecified) |  | inconclusive: 18.5 µM [inhibitor, single point] |
| CC(C)(C)OC(=O)N1CCC[C@@H]1CO | inactive: 61.8% |  |
| CC(=O)Nc1ccc(NC(=O)CSc2ccc(C)cc2)cc1 |  | inconclusive: 18.5 µM [inhibitor, single point] |
| COC(=O)C1=CN(c2cccc(C(F)(F)F)c2)C=C(C(=O)OC)C1c1ccc(O)c(OC)c1 |  | inconclusive: 13.1 µM [inhibitor, partial curve, poor fit] |
| CC/C(O)=C(\C#N)c1nnc2n1CCCCC2 | inactive: -5.2% |  |
